# Data reported in PMC7862700.
# Protein sequences, listed by entry. Tags and fused reporters are not part of them. Lines headed by an entry give the natural chain unless they say otherwise; changes in a name come on top.
# UniProt Q01892: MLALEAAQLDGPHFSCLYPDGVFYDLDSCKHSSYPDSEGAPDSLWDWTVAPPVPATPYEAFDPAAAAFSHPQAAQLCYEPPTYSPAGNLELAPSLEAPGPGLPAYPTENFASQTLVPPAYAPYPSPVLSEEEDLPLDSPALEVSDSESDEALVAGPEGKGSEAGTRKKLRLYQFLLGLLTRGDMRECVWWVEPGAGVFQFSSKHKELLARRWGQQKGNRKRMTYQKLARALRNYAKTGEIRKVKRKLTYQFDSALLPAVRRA
# This is a selection; strong and weak results do not stand in their true shares. At the low end of the ranking the order means little.
# Experiments:
# Assay in all cases: DAPPL (digital affinity profiling via proximity ligation, sequencing)
# Details in all cases: 10 mM Tris-HCl pH 7.5, 50 mM NaCl, 1 mM DTT, 4% glycerol, room temperature, 30 min; GST-TFs on glutathione beads, 16-mer random dsDNA library, 0.1% …; high values mean tight binding; double strand, one strand shown; scale: fold enrichment (6-mer frequency, TF over GST control)
# FLI1 = molecular target: T1, FLI1 (UniProt Q01543)
# T1 sequence: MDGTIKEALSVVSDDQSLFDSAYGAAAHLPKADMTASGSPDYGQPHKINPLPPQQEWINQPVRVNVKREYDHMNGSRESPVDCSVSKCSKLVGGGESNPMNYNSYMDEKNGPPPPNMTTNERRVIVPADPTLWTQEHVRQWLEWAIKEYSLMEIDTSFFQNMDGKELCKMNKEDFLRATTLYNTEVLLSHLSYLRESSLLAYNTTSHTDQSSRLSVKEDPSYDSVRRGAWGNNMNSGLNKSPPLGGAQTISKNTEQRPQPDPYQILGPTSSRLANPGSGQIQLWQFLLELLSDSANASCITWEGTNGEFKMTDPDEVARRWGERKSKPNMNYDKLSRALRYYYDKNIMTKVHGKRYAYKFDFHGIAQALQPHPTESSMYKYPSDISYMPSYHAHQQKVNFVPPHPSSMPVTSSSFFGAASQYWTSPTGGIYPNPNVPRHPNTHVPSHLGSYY
# ETV2 = molecular target: T2, ETV2 (UniProt O00321)
# T2 sequence: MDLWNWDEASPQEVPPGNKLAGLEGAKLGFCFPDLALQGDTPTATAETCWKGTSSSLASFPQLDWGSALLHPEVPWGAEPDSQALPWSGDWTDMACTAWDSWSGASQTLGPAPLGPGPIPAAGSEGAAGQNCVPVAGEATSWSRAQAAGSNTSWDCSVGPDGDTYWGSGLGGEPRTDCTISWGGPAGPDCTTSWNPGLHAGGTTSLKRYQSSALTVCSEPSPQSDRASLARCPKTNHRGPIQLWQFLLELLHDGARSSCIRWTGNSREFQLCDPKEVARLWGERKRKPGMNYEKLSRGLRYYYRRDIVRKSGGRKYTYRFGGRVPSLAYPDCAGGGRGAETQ
# ETV3L = molecular target: T3, ETV3L (UniProt Q6ZN32)
# T3 sequence: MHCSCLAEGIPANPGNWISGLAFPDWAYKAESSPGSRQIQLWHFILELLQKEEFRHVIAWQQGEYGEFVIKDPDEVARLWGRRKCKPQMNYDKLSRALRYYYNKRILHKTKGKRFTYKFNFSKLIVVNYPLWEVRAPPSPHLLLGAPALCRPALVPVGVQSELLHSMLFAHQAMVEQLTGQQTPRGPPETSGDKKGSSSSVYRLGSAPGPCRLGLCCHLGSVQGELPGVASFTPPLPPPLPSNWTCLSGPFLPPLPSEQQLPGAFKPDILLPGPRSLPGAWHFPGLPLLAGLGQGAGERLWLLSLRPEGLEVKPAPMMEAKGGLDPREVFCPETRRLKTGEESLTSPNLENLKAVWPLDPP
# EHF = molecular target: T4, EHF (UniProt Q9NZC4)
# T4 sequence: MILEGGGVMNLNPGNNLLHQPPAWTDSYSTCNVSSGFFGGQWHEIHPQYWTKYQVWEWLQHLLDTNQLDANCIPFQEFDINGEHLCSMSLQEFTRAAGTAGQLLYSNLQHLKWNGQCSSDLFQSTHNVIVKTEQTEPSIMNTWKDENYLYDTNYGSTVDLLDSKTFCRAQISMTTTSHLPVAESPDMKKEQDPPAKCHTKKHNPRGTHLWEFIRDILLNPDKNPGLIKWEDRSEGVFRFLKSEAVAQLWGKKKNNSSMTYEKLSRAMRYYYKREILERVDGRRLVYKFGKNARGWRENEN
# SPIB = SPIB (UniProt Q01892)
Sequence,binding signal (FLI1),binding signal (ETV2),binding signal (ETV3L),binding signal (EHF),binding signal (SPIB)
CACTCA,1.06,1.27,1.11,–,–
TAGCAT,1.16,0.936,1.14,–,–
CGCCCA,0.987,0.967,0.992,0.999,0.944
AATAGG,1.15,0.993,1.12,–,–
AGCAAA,0.956,1.17,0.988,1.03,1.04
TGGGTG,0.882,0.969,1.08,–,0.979
ACAAGA,0.905,0.976,0.959,0.925,0.821
ATACGC,1.09,0.981,–,1.11,–
CCAAAT,1.02,0.973,1.02,–,–
TTTTTT,1.12,–,1.18,–,–
CTCGCG,1.47,1.39,–,1.32,1.45
CGTTCC,1.43,1.33,–,1.42,–
ACAACA,1.22,1.28,–,1.24,–
ACCCTC,1.2,–,1.08,–,–
GTTCCC,1.36,1.12,–,1.28,1.37
ACTCGA,1.35,1.46,–,–,1.24
ATGAAG,1.1,0.99,–,–,0.917
CTGGCA,1.33,1.49,–,1.23,1.29
AAGCTG,1.21,–,1.05,–,–
AAGAAG,1.05,1.19,–,–,0.949
GTCTAA,1.05,–,0.981,–,–
GATTTG,1.24,–,1.18,–,–
CTAAAT,1.34,1.33,–,1.34,1.38
CACTCC,1.27,1.17,–,1.17,1.33
GTGCAT,0.989,1.02,–,–,0.997
AACCTA,1.03,–,1.05,–,–
CGATAG,1.07,1.16,–,1.05,1.07
CCTTCA,1.49,–,1.21,–,–
CAGATT,1.07,–,0.965,–,–

# Given tab-delimited: part of the list above
Sequence	binding signal (FLI1)	binding signal (ETV2)	binding signal (ETV3L)	binding signal (EHF)	binding signal (SPIB)
ACAAGA	0.905	0.976	0.959	0.925	0.821
ATACGC	1.09	0.981	–	1.11	–
